Data on one molecule can be found in PMC3930493.

Results are given in words; binding and its absence hold for the method and conditions named. In cells and extracts the contact can be indirect. Some binding calls cover weakened binding; strength is not graded here. Tags and fused reporters may be left off the sequences shown.

The experiment addresses T1, Drosophila Trabid-V5 (D. melanogaster), Q9VH90.
T1 chain: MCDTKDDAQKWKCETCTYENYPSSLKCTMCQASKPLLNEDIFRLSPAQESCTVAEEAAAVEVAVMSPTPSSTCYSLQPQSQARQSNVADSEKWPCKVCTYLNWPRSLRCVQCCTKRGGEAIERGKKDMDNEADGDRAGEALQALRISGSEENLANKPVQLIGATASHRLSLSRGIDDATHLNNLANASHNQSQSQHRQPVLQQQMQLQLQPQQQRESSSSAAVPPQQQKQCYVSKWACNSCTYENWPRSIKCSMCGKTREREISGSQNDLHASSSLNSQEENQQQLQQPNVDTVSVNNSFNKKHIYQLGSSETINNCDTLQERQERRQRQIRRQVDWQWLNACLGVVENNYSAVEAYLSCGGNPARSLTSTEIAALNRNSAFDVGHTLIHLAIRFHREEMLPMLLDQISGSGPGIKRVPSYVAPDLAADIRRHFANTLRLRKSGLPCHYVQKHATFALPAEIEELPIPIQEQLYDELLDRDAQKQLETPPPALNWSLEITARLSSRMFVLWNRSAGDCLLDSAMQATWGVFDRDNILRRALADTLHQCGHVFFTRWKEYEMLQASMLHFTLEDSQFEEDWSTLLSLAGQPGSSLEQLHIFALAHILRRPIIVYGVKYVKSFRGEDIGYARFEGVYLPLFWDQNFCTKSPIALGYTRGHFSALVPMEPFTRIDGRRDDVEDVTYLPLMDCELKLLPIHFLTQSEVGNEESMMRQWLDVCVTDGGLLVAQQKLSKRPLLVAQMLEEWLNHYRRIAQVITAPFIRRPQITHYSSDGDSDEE
Put plainly: co-IP; S2 cells co-transfected, lysed 48 hrs post-transfection in RIPA buffer; anti-V5 agarose 2 hours at 4°C; washes with 900 mM NaCl then 150 mM NaCl CoIP wash buffer; 10% SDS PAGE, immunoblot with anti-HA. Particulars: remark: other sources report otherwise.

B1: Drosophila TAK1-HA (TGF-beta Activating Kinase 1), Q9V3Q6 1-678 (protein)
chain: MATASLDALQAAYVDFSEITLREKVGHGSYGVVCKAVWRDKLVAVKEFFASAEQKDIEKEVKQLSRVKHPNIIALHGISSYQQATYLIMEFAEGGSLHNFLHGKVKPAYSLAHAMSWARQCAEGLAYLHAMTPKPLIHRDVKPLNLLLTNKGRNLKICDFGTVADKSTMMTNNRGSAAWMAPEVFEGSKYTEKCDIFSWAIVLWEVLSRKQPFKGIDNAYTIQWKIYKGERPPLLTTCPKRIEDLMTACWKTVPEDRPSMQYIVGVMHEIVKDYTGADKALEYTFVNQQIVTKESDGTVAAQPDSLSSQEGELSPSSTQLTPTTAANANVNAIAISKTTTSSMTENTSSTSSDITPTNSGQLDNNPLFYMVTNRWDAIPEEESNESRNDSFNLTSSAEATQRLETIRNGMILMACKPMEQLTLDVEANGFDLSPSESSSSSTNAKSDGRERLTVTDTKPVMMTTDLSNNNGGIHAHSNGLLSHANGWQARDEELQEQEHEQEIVNSLDVDVDPDEDENDGTEQSLAEILDPELQPEPPIPNDAESQLIYRDHRHMAKEYLSVDTNLYYAQDFKDKLIVQMDRTEREQKQELLRKMKDKEGLQSLYNNLQQQYASRQLAAGHHPQPHPHPHPNQLQHPHSHPPMHFLQDEGCGLLPGSVCGGSESVEEGWVVIPPHHNA
Take B1: the binding result is “binds”.
